Laboratory results from patent publication US6140490.
Construct, isoform or probe ends are uncertain for at least one entry.

Test system: Complement C1q (Homo sapiens)
Experiment: SELEX
Conditions: 2'-F C and U, purified native protein, protein details: Quidel
[1] = selected sequence, ranked at 0.1 and 0.5 nM C1q
[2] = MgPBS, 37 C, cloned from evolved pool

Sequence | selection result [1] | selection result [2]
GGGAGGACGAUGCGGAAACCAAAUCGUCGAUCUUUCCACCGUCGUCAGACGACUCGCCCGA [C1B100] | selected | 
GGGAGGACGAUGCGGAACAGGUAGUUGGGUGACUCUGUGUGACCUCAGACGACUCGCCCGA [C1B121c] | selected | 
GGGAGGACGAUGCGGAGCAGUUGAAAGACGUGCGUUUCGUUUGGUCAGACGACUCGCCCGA [C1Q-A28'C] | selected | 
GGGAGGACGAUGCGGUUCCGCAAGUUUAGACACUCACUGCCUCGUCAGACGACUCGCCCGA [10.C1Q151c] |  | selected
GGAGGACGAUGCGGAUGAGGAGGAAGAGUCUGAGGUGCUGGGGUCAGACGACUCGCCCGA [C1q7c] |  | selected
GGGAGGACGAUGCGGUCCAAUUCGUUCUCAUGCCUUUCCGCUCGUCAGACGACUCGCCCGA [08.C1Q.147c] |  | selected
GGGAGGACGAUGCGGAGAUGGAUGGAAGUGCUAGUCUUUCUGGGGUCAGACGACUCGCCCGA [C1B119c] | selected | 
GGGAGGACGAUGCGGAGUUCCCAGCCGCCUUGAUUUCUCCGUGGUCAGACGACUCGCCCGA [24c1qb51c] |  | selected
GGGAGGACGAUGCGGCCGUCUCGAUCCUUCUAUGCCUUCGCUCGUCAGACGACUCGCCCGA [C1q6 c] |  | selected
GGGAGGACGAUGCGGGGCCGACGAUUCACCAAUGUUCUCUCUGGUCAGACGACUCGCCCGA [30c1Q24c (GGCC)] |  | selected
GGAGGACGAUGCGGGUCGACAUUGAAGCUGCUCUGCCUUGAUCCUCAGACGACUCGCCCGA [Clq20c] |  | selected
GGGAGGACGAUGCGGUUCCGACGAUUCUCCAAUGUUCUCUCUGGUCAGACGACUCGCCCGA [30c1q24c (UUCC)] |  | selected
GGGAGGACGAUGCGGAGCUGAUGAAGAUGAUCUCUGACCCCUCAGACGACUCGCCCGA [44c1qb6oc] |  | selected
GGGAGGACGAUGCGGAAAGUGGAAGUGAAUGGCCGACUUGUCUGGUCAGACGACUCGCCCGA [c1qrd17-33c] | selected | 
GGAGGACGAUGCGGAACCAAAUCGUCGAUCUUUCCACCGCUCGUCAGACGACUCGCCCGA [C1q11c] | selected | 
GGGAGGACGAUGCGGUUGAGUGGACAGUGCGAUUCGUUUUGGGGUCAGACGACUCGCCCGA [10.C1B.134c] |  | selected
GGGAGGACGAUGCGGAAGGAUGACGAGGUGGUUGGGGUUUGUGCUCAGACGACUCGCCCGA [c1q-a12C] | selected | 
GGGAGGACGAUGCGGAGAUGGAUGGAAGUGCUAGUCUUCUGGGGUCAGACGACUCGCCC [14.C1Q156c] | selected | 
GGGAGGACGAUGCGGAGGAGAGUGUGGUGAGGGUCGUUUUGAGGGUCAGACGACUCGCCCGA [C111c] |  | selected
GGGAGGACGAUGCGGUCGAUGUUCUUCCUCACCACUGCUCGUCGCCUCAGACGACUCGCCCGA [C1B115c] |  | selected
GGGAGGACGAUGCGGAGCUGAAAGCGAAGUGCGAGGUGUUUGGUCCAGACGACUCGCCCGA [06.C1Q.143c] |  | selected
GGAGGACGAUGCGGGAACCAAAUCGUCGAUCUUUCCACCGCUCGUCAGACGACUCGCCCGA [C1q9c] |  | selected
GGGAGGACGAUGCGGUUCCGACAUCGAUGUUGCUCUUCGCCUCGUCAGACGACUCGCCCGA [c1qrd17-56c] |  | selected
GGGAGGACGAUGCGGCUCAACUCUCCCACAGACGACUCGCCCGGGCCUCCUCAGACGACUCGCCCGA [c1qrd17-63c] |  | selected

Sequence | selection result [1] | selection result [2]
GGGAGGACGAUGCGGUGGAAGCGAAUGGGCUAGGGUGGGCUGACCUCCAGACGACUCGCCCGA [01.C1Q.135c] |  | selected
GGGAGGACGAUGCGGCAUCGUAAACAAUUUGUUCCAUCUCCGCCUCAGACGACUCGCCCGA [C1Q-A4'C] |  | selected
GGGAGGACGAUGCGGAGCACAAUUUUUUCCUUUUCUUUUCGUCCACGUGCUCAGACGACUCGCCCGA [15.C1Q.157c] |  | selected
GGGAGGACGAUGCGGAACAAGGACAAAAGUGCGAUUCUGUCUGGCAGACGACUCGCCCG [32.C1B76c] | selected | 
GGGAGGACGAUGCGGAUCUGAGGAGCUCUUCGUCGUGCUGAGGGUCAGACGACUCGCCCGA [28c1Qb20c] |  | selected
GGGAGGACGAUGCGGAAGCGGUGAGUCGUGGCUUUCUCCUCGAUCCUCGUCAGACGACUCGCCCGA [c1q-a2C] | selected | 
GGGAGGACGAUGCGGUUCCACAUCGCAAUUUUCUGUCCGUGCUCGUCAGACGACUCGCCCGA [c1qrd17-53c] |  | selected
GGGAGGACGAUGCGGAGACACUAAACAAAUUGGCGACCUGACCGUCAGACGACUCGCCCGA [C1Q-A7'C] | selected | 
GGAGGACGAUGCGGGGUUCCUCAAUGACGAUCUCCAUUCCGCUCGUCAGACGACUCGCCCAG [C1q10c] |  | selected
GGGAGGACGAUGCGGAACAGACGACUCGCGCAACUACUCUGACGUCAGACGACUCGCCCGA [c110c] | selected | 
GGGAGGACGAUGCGGAUGGUACUUUAGUCUUCCUUGAUUCCGCCUCAGACGACUCGCCCGA [34c1qb27c] |  | selected
GGAGGACGAUGCGGAGCGAAAGUGCGAGUGAUUGACCAGGUGCUCAGACGACUCGCCCGA [C1q4c] |  | selected
GGGAGGACGAUGCGGCAGUGAAAGGCGAGUUUUCUCCUCUCCCUCAGACGACUCGCCCGA [C115c] |  | selected
GGGAGGACGAUGCGGGACCACCUCGAUCCUCAGCGCCAUUGCCCUCAGACGACUCGCCCGA [C1Q-A10'C] |  | selected
GGGAGGACGAUGCGGAGAGGCUCAGACGACUCGCCCGACCACGGAUGCGACCUCAGACGACUCGCCCGA [03.C1Q.137c] | selected | 
GGGAGGACGAUGCGGGAAGUGGAAGGGUAGUUGUGUGACCUCAGACGACUCGCCCGA [C119c] |  | selected
GGGAGGACGAUGCGGAGGAGCUGAUGAAGAUGAUCUCUGACCCCUCAGACGACUCGCCCGA [44c1Qb60c] |  | selected
GGGAGGACGAUGCGGAUUUCGGUCGACUAAAUAGGGGUGGCUCGUCAGACGACUCGCCCGA [C1Q-A22'C] |  | selected
GGAGGACGAUGCGGUUCCAAAUCGUCUAAGCAUCGCUCGCUCGUCAGACGACUCGCCCAG [C1q14c] |  | selected
GGGAGGACGAUGCGGAACCCAAUCGUCUAAUUCGCUGCUCAUCGUCAGACGACUCGCCCGA [C1Q-A5'c] | selected | 
GGGAGGACGAUGCGGAACCGCUAUUGAAUGUCACUGCUUCGUGCUCAGACGACUCGCCCGA [C15c] | selected | 
GGGAGGACGAUGCGGUUCCGAUCGACUCCACAUACAUCUGCUCGUCAGACGACUCGCCCGA [C1B114c] |  | selected
GGGAGGACGAUGCGGAUAAGUGCGAGUGUAUGAGGUGCGUGUGGUCAGACGACUCGCCCGA [31c1qb16c] |  | selected
GGGAGGACGAUGCGGCAAGAGGUCAGACGACUGCCCCGAGUCCUCCCCCGGUCAGACGACUCGCCCGA [C122c] |  | selected

Sequence | selection result [1] | selection result [2]
GGGAGGACGAUGCGGAACUCAAUGGGCCUACUUUUCCGUGGUCCUCAGACGACUCGCCCGA [C121c] | selected | 
GGAGGACGAUGCGGAACACGGAAGACAGUGCGACUCGAUCUGGUCAGACGACUCGCCCGA [C1q5 c] | selected | 
GGGAGGACGAUGCGGAACCCAAUCGUCUAAUUCGCUGCUCAUCGUCAGACGACUCGCCCGA [C1Q-A24'c] | selected | 
GGAGGACGAUGCGGAUCCGCAAACCGACAGCUCGAGUUCCGCCUCAGACGACUCGCCCGA [C1q17c] |  | selected
GGGAGGACGAUGCGGCAUAGUCCGGAUACUAGUCACCAGCCUCGUAGACGACUCGCCCGA [46C1Qb64c] |  | selected
GGGAGGACGAUGCGGAACACGAAACGGAGGUUGACUCGAUCUGGCCAGACGACUCGCCCGA [c1q-a8c] | selected | 
GGGAGGACGAUGCGGCAUUGUCCAAGUUUAGCUGUCCGUGCUCGUCAGACGACUCGCCCGA [c1qrd17-64c] |  | selected
GGGAGGACGAUGCGGUCCACAUCGAAUUUUCUGUCCGUUCGUCAGACGACUCGCCCGA [26c1Qb4c] |  | selected
CGGAGGACGAUGCGGGCAAACUUUUCCUUUUCCCUUUAUCUUCCUUGCCCUCAGACGACUCGCCCGA [c1qrd17-42c] |  | selected
GGGAGGACGAUGCGGUUCCGACGAUUCUCCAAUCUUCUCUCUGGUCAGACGACUCGCCCGA [38c1qb45c] |  | selected
GGGAGGACGAUGCGGGACUCCUCGACCGACUCGACCGGCUCGUCAGACGACUCGCCGA [c1qrd17-47c] |  | selected
GGGAGGACGAUGCGGACAAGACGAGAACGGGGGGAGCUACCUGGCCAGACGACUCGCCCGA [c1qrd17-43c] | selected | 
GGGAGGACGAUGCGGUUCCGAAGUUCUUCCCCCGAGCCUUCCCCCUCCAGACGACUCGCCCGA [05.C1Q.142c] |  | selected
GGGAGGACGAUGCGGAGCGUGAGAACAGUUGCGAGAUUGCCUGGUCAGACGACUCGCCCGA [c1qrd17-52c] |  | selected
GGGAGGACGAUGCGGUCGAGCUGAGAGGGGCUACUUGUUCUGGUCACAGACGACUCGCCCGA [33c1Q26c] |  | selected
GGGAGGACGAUGCGGUUCCACAUCGAAUUUUCUGUCCGUGUCGUCAGACGACUCGCCCGA [c1q-a6C] |  | selected
GGAGGACGAUGCGGAUGAUGACUGAACGUGCGACUCGACCUGGCCAGACGACUCGCCCGA [C1ql6c] |  | selected
GGGAGGACGAUGCGGUGGACUUCUUUUCCUCUUCCUCCUUCCGCCGGUCAGACGACUCGCCCGA [47c1qb65c] |  | selected
GGGAGGACGAUGCGGCAUCGUUCAGGAGAAUCCACUUCGCCUCGUCAGACGACUCGCCCGA [09.C1Q.149c] |  | selected
GGGAGGACGAUGCGGCAUCUUCCUUGUUCUUCCAACCGUGCUCCUCAGACGACUCGCCCGA [04.C1Q.138c] |  | selected
GGGAGGACGAUGCGGAUCCGAAUCUUCCUUACACGUCCUGCUCGUCAGACGACUCGCCCGA [c1qrd17-61c] |  | selected
GGGAGGACGAUGCGGUCCGCAAGUUUAGCACUCACUGCCUCGUCAGACGACUCGCCCGA [11.C1Q.152c] |  | selected
